Among the data in publication PMC7819943, “Rice protein-binding microarrays: a tool to detect cis-acting elements near promoter regions in rice” are binding signal values, retold here.

The other results are listed elsewhere or left out.

In this test the target is T1, OsSMF1 (Oryza sativa, UniProt Q6ZLB0 1-436).
T1 sequence: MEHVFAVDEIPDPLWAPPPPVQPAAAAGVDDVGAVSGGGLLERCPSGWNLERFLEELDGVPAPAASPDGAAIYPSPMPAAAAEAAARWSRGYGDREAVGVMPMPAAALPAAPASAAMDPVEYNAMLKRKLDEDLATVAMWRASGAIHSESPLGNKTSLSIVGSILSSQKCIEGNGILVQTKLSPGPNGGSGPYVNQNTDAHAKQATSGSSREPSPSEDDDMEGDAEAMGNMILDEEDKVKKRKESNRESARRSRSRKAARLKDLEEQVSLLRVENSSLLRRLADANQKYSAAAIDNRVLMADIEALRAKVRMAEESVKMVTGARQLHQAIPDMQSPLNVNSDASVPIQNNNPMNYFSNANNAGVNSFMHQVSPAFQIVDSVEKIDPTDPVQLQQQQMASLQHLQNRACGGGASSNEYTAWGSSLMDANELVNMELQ
Nature of the test: protein-binding microarray (RPBM); PBS, 2% BSA, 51.3 ng/ul salmon testes DNA, 50 uM zinc acetate, 200 nM TF, 25 C, 1 h; high values mean tight binding. Particulars: protein: recombinant; tags: N-terminal polyhistidine and DsRed monomer fusion (pET32a); chain copies: 2; label: CyDye5-dUTP incorporated in the synthesized complementary strand; 3' TTTTT single-stranded linker to array surface; dsDNA, one strand shown. The gist of the method:
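Transcription factors were each fused at the N-terminus to a polyhistidine tag plus DsRed and expressed in E. coli BL21-CodonPlus before Ni–NTA purification. Binding to a double-stranded custom Agilent array was carried out with 200 nM protein at 25 °C for 1 h in PBS, 2% BSA, salmon testes DNA and 50 µM zinc acetate. The binding signal is per-feature fluorescence intensity, in arbitrary units, on an Axon 4000B scanner.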
For “GATGTGAGTCGATCGATTGGTTGGGTGACAGGTGCGTGCTCGGAGTCACCTAGTGCAG”, the binding signal is 3470 fluorescence intensity (a.u.).

As for “GTCGATCGATCGCATCAACCCAACCCTACCAAATATAAATCGGAGTCACCTAGTGCAG”, the binding signal was 3480 fluorescence intensity (a.u.).

Take “TCTACGCGTAGATTTTGCTTTTCTTTGCTTTGCTTTCCAGCGGAGTCACCTAGTGCAG”: the binding signal is 22700 fluorescence intensity (a.u.).

For “ATCATGGCAGTCCCAACCCTCCACCTAGGATATTGTCTATCGGAGTCACCTAGTGCAG”, the binding signal was 3210 fluorescence intensity (a.u.).

In the case of “CCTCGCCTCGTTTACGTGTCGCCCCGCCCATCCCGCGCGCCGGAGTCACCTAGTGCAG”, the binding signal is 8500 fluorescence intensity (a.u.).

As for “CCATGTGGGCCCCACCTGCGTCGCCACGTCAGCGTGCTCGCGGAGTCACCTAGTGCAG”, the binding signal was 38800 fluorescence intensity (a.u.).

As for “GGGGTGAAAATGAATTAGATGCCACGTGCAGGTTCGCATGCGGAGTCACCTAGTGCAG”, the binding signal was 10000 fluorescence intensity (a.u.).

Turning to “GTAATGTCAAATTAGTTTGATGTCTTCCTAAGTTTTGATACGGAGTCACCTAGTGCAG”, the binding signal was 3220 fluorescence intensity (a.u.).

As to “TTATGCAAATGTAAAAGATATAAATCACACTTAAAGTACTCGGAGTCACCTAGTGCAG”, the binding signal is 33500 fluorescence intensity (a.u.).

“CATCACATCACCAGAATCTATCACCTCTGTCACTGTTCTTCGGAGTCACCTAGTGCAG”: the binding signal is 3720 fluorescence intensity (a.u.).

Regarding “CGGTGTTGTAAATTGGGCCCATATGTCGTGTACATGCAAGCGGAGTCACCTAGTGCAG”, the binding signal is 3880 fluorescence intensity (a.u.).

“AAGCATGAAATTTGGTTGTTACAGTATGAATATCACAAATCGGAGTCACCTAGTGCAG”: the binding signal is 18400 fluorescence intensity (a.u.).

With “CCGGTCTAAATCTGGAATTTCAAATTTGAACTTGAAAGTTCGGAGTCACCTAGTGCAG”, the binding signal is 34100 fluorescence intensity (a.u.).

“GTCACCCTCATGCGTATGACATGGCCGCTGTCTTATGTCGCGGAGTCACCTAGTGCAG”: the binding signal is 4480 fluorescence intensity (a.u.).

With “ATTGGCTGACATGTGGGTCCTATTGAATCAGTGAGTCAACCGGAGTCACCTAGTGCAG”, the binding signal was 4760 fluorescence intensity (a.u.).

Take “GTGAGCGTGTGTGAGTATGGTGTTACATGTTTAATAGTGTCGGAGTCACCTAGTGCAG”: the binding signal is 3470 fluorescence intensity (a.u.).

As for “TGGCTATCTTACCTCCCTTTTCTGCGCCGCGTCCTCCTCTCGGAGTCACCTAGTGCAG”, the binding signal was 3290 fluorescence intensity (a.u.).

For “GAGAGAGAGAGAGATGCGGCGTGGCAGCAGCAGCAGCAGCCGGAGTCACCTAGTGCAG”, the binding signal was 3300 fluorescence intensity (a.u.).

“GTCCTGCTTGTTGATGTCATCCTTCCAGAATTCGATGTCGCGGAGTCACCTAGTGCAG”: the binding signal is 5200 fluorescence intensity (a.u.).

In the case of “TTTCTATGCGGGCCACTTAACACGTCCGCACGCGAAAATACGGAGTCACCTAGTGCAG”, the binding signal is 4910 fluorescence intensity (a.u.).

On to “CCTGATCAGAAGTCAGACGTCAGATCTTCCTCATGGCCGACGGAGTCACCTAGTGCAG”, for which the binding signal is 3170 fluorescence intensity (a.u.).

“TTCTACATTTAATACTCCATGTATGTGTCCAAATATTCGACGGAGTCACCTAGTGCAG”: the binding signal was 24800 fluorescence intensity (a.u.).

Take “TAGCTAAATGTCAATTTTCTCGTCTATGTGGCAGTCGCCACGGAGTCACCTAGTGCAG”: the binding signal was 3640 fluorescence intensity (a.u.).

Consider “TGCATAGTCCTTGGCTCGAATGCGTGGATGCACTATGTGGCGGAGTCACCTAGTGCAG”, for which the binding signal is 4070 fluorescence intensity (a.u.).

On to “TCTCCCTCTACCTCGACGTCATCAACCTCTTCCTCTCCCTCGGAGTCACCTAGTGCAG”, for which the binding signal was 11000 fluorescence intensity (a.u.).

With “GTGTGTGTGTTTGTGTGACCTGGCCTTTGTATGAATGGAACGGAGTCACCTAGTGCAG”, the binding signal was 3790 fluorescence intensity (a.u.).

For “CCCTTTCCTCGTCGTCGTCCACGCATGCCGTCCACCGGCGCGGAGTCACCTAGTGCAG”, the binding signal was 4680 fluorescence intensity (a.u.).

With “TACTTTTACTTATAAATGTAGTTATTTTAGATCAATTTGACGGAGTCACCTAGTGCAG”, the binding signal was 3250 fluorescence intensity (a.u.).

As for “CCGGTGAACGGTTTGAGTGAGTGTAGGGGTACACATTTCTCGGAGTCACCTAGTGCAG”, the binding signal was 35300 fluorescence intensity (a.u.).

As for “TATACATAAATATCTAATTTATATACATTAACCGTCATGACGGAGTCACCTAGTGCAG”, the binding signal was 3150 fluorescence intensity (a.u.).

With “GGCAGTCAGACCGGCGGGAGCACAGCGGTCAGACGTGTGGCGGAGTCACCTAGTGCAG”, the binding signal is 3560 fluorescence intensity (a.u.).

“GTCGCCGGCGCCGACACGCAGCTCCTCGTCCCGGCCATGGCGGAGTCACCTAGTGCAG”: the binding signal is 4080 fluorescence intensity (a.u.).

Turning to “GGCTCTCTAGCTCGGTCGATCATCCATGACGTCACTACAACGGAGTCACCTAGTGCAG”, the binding signal is 9930 fluorescence intensity (a.u.).

For the sequence “TCGTTGTGATAGAGAGCATCACTGCATCAGCATCGGCCTACGGAGTCACCTAGTGCAG”, the binding signal is 3940 fluorescence intensity (a.u.).

Regarding “TTTGCATTGACTTGATATAGTATGTCACCATCACACTATCCGGAGTCACCTAGTGCAG”, the binding signal was 5460 fluorescence intensity (a.u.).

As for “ATTTGAAGATGGAAGTGCTGCTCATTAGCTCATGTTGAGGCGGAGTCACCTAGTGCAG”, the binding signal is 3370 fluorescence intensity (a.u.).

For “TCGGCGAGGTGAACACAATGGCGATGACGTCGCAATGTGACGGAGTCACCTAGTGCAG”, the binding signal is 4690 fluorescence intensity (a.u.).

“AGCCACTGATACCCACACCTATGGATTGCTGCCCCACTTTCGGAGTCACCTAGTGCAG”: the binding signal was 3540 fluorescence intensity (a.u.).

On to “CGTTGCCGCGTCGCGACACGTCAGCGCGCGCTGGAGAGAGCGGAGTCACCTAGTGCAG”, for which the binding signal was 8470 fluorescence intensity (a.u.).

In the case of “TCGGCCGCATGCACCGCATCATGCTCAATGCCACGACCACCGGAGTCACCTAGTGCAG”, the binding signal was 20700 fluorescence intensity (a.u.).

With “CAAAATCTCATGTCGTGCACGCACATTTTCCATGGCTATACGGAGTCACCTAGTGCAG”, the binding signal was 3340 fluorescence intensity (a.u.).

Turning to “CGTCGTATTAACCTCTCTAAACCCCGTGGCGTCAGCGACGCGGAGTCACCTAGTGCAG”, the binding signal is 5270 fluorescence intensity (a.u.).
